From patent US20240009139A1, “STABLE WOUND CARE FORMULATION” (JENARRON THERAPEUTICS LIMITED, priority 2017, published 2024)
Counter-ions that a name gives are not always drawn.

Type: physicochemical
Description: Tests carried out: Weight change *, pH *, Lidocaine Assay #, Rheology #, Hardness and compressibility *, In vitro release study †
The 28-99 PVA hydrogels (batch numbers 16 and 17 in Table 5 above) were evaluated for various parameters up to 6 months storage. The same parameters for batch numbers 18 and 19 (4-88 PVA) up to the 3 month time point are also discussed.

CCN(CC)CC(=O)Nc1c(C)cccc1C [Lidocaine HCl, lidocaine hydrochloride]
stability of lidocaine HCl in PVA-THB hydrogels: no appreciable degradation
